# Experimental data reported in PubChem BioAssay.
# The other results are listed elsewhere or left out. Further columns of the screen follow, without active or inactive calls. For some of these results: Compounds called inactive in the main read-out are mostly missing here. Peptide text beside a SMILES is read from it.
# What was measured:
# [1] = PubChem AID 1586; conditions: yeast two-hybrid polyglutamine protein interaction, reporter readout; measured here: averaged growth delta OD
# [2] = enhancers of SMN2 over SMN1 splicing, cell-based, SMN2/SMN1 luciferase reporters (AID 1598); conditions: SMN2 vs SMN1 luciferase splicing reporter cells, at 10 µM; SMN1 luciferase ratio: measured here: SMN1 luciferase reporter average; SMN2 luciferase ratio: measured here: SMN2 luciferase reporter average, stronger effect = higher value
# [3] = protection against mutant huntingtin cytotoxicity, PC12 cells, LDH release (AID 1610); conditions: PC12 mutant huntingtin toxicity, final LDH at 4 uM, stronger effect = lower value
SMILES,signal change (36 h minus 0 h) [1],SMN1 luciferase ratio [2],SMN2 luciferase ratio [2],normalised LDH release [3]
Cn1c(=O)[nH]c2ncn(C)c2c1=O,0.177,0.86,0.85,0.601
N=c1nc(N2CCCCC2)cc(N)n1O,0.0471,0.9,0.93,0.817
O=c1[nH]cc(F)c(=O)[nH]1,0.0683,0.51,0.58,0.884
COc1ccc(C2Sc3ccccc3N(CCN(C)C)C(=O)C2OC(C)=O)cc1 (configuration not stated),0.0954,0.77,0.69,1.18
CC(C)(C)NCC(O)COc1cccc2c1C[C@H](O)[C@H](O)C2 (some centres not stated),0.156,0.93,0.94,1.03
O=c1cc(-c2ccccc2)oc2c(O)c(O)ccc12,0.149,1.01,0.82,0.318
Cn1c([N+](=O)[O-])cnc1COC(N)=O,0.128,0.95,0.92,0.935
NS(=O)(=O)c1cc2c(cc1Cl)NC(C(Cl)Cl)NS2(=O)=O (configuration not stated),0.193,0.92,0.88,0.537
OC(CCN1CCCC1)(c1ccccc1)C1CCCCC1 (configuration not stated),0.17,0.91,0.93,0.692
CC12CCC3C(=CCc4cc(O)ccc43)C1CCC2=O (configuration not stated),0.0898,0.92,0.98,0.896
O=C(O)c1cn(C2CC2)c2cc(N3CCNCC3)c(F)cc2c1=O,0.203,0.83,0.88,1.53
COC1=CC(=O)C[C@@H](C)[C@]12Oc1c(Cl)c(OC)cc(OC)c1C2=O,0.0679,0.94,0.9,0.718
C/C=C(/C(=C/C)c1ccc(O)cc1)c1ccc(O)cc1,0.0503,0.92,0.96,0.858
C=C[C@H]1CN2CC[C@H]1C[C@@H]2[C@H](O)c1ccnc2ccc(OC)cc12,0.198,0.89,0.91,0.866
NS(=O)(=O)c1cc2c(cc1C(F)(F)F)NC(Cc1ccccc1)NS2(=O)=O (configuration not stated),0.104,0.91,0.94,0.924
CNCCCC12CCC(c3ccccc31)c1ccccc12,0.067,0.94,0.95,1.03
CCCCOC(=O)c1ccc(N)cc1,0.049,1.02,1.01,0.8
COc1cc(NS(=O)(=O)c2ccc(N)cc2)ncn1,0.27,0.92,0.91,0.914
Oc1ccc(Cl)c2cccnc12,0.2,0.79,0.94,1.3
CC1(C)S[C@@H]2[C@H](NC(=O)[C@H](N)c3ccccc3)C(=O)N2[C@H]1C(=O)O,0.111,0.84,0.89,1.12
CC(=O)N(O)CCCCCNC(=O)CCC(=O)N(O)CCCCCNC(=O)CCC(=O)N(O)CCCCCN,0.133,0.79,0.7,0.929
CS(=O)(=O)Nc1ccc([N+](=O)[O-])cc1Oc1ccccc1,0.0621,0.91,0.9,1.01
CN1Cc2c(N)cccc2C(c2ccccc2)C1 (configuration not stated),0.26,0.87,0.95,0.574
Cc1cc(=O)[nH]c(=S)[nH]1,0.169,0.91,0.9,0.513
CCCSc1ccc2nc(NC(=O)OC)[nH]c2c1,0.0804,1.25,1.34,1.11

# 3 compounds from above, limited to normalised LDH release [3], SMN1 luciferase ratio [2] and signal change (36 h minus 0 h) [1]:
SMILES	normalised LDH release [3]	SMN1 luciferase ratio [2]	signal change (36 h minus 0 h) [1]
O=c1[nH]cc(F)c(=O)[nH]1	0.884	0.51	0.0683
COc1ccc(C2Sc3ccccc3N(CCN(C)C)C(=O)C2OC(C)=O)cc1 (configuration not stated)	1.18	0.77	0.0954
CC(C)(C)NCC(O)COc1cccc2c1C[C@H](O)[C@H](O)C2 (some centres not stated)	1.03	0.93	0.156

# The list continues.

SMILES,signal change (36 h minus 0 h) [1],SMN1 luciferase ratio [2],SMN2 luciferase ratio [2],normalised LDH release [3]
C[C@@H]1CC2C3C[C@H](F)C4=CC(=O)C=C[C@]4(C)[C@@]3(F)[C@@H](O)C[C@]2(C)[C@@]1(O)C(=O)CO (some centres not stated),0.0908,0.82,0.94,0.372
NC(=O)N1c2ccccc2C=Cc2ccccc21,0.0664,0.81,0.87,0.87
O=C(O)CCC(=O)OC[C@@H](NC(=O)C(Cl)Cl)[C@H](O)c1ccc([N+](=O)[O-])cc1,0.0818,0.85,0.87,0.956
COc1cc(S(C)=O)ccc1-c1nc2ncccc2[nH]1 (configuration not stated),0.0932,0.96,0.85,1.01
COc1ccc(NS(=O)(=O)c2ccc(N)cc2)nn1,0.0631,0.87,0.8,0.696
CCC(=O)O[C@@H](O[P@](=O)(CCCCc1ccccc1)CC(=O)N1C[C@H](C2CCCCC2)C[C@H]1C(=O)O)C(C)C,0.042,0.87,0.86,1.31
C[N+](C)(C)CC(O)CC(=O)O (configuration not stated),0.105,0.94,0.76,0.985
CC(C)OC(=O)C(C)(C)Oc1ccc(C(=O)c2ccc(Cl)cc2)cc1,0.15,0.85,0.82,0.869
O=C(O)c1ccc(S(=O)(=O)N(Cl)Cl)cc1,0.0628,0.83,0.83,0.872
NNC(=O)c1ccncc1,0.0249,0.81,0.87,0.879
N=C(N)N,0.161,0.96,0.98,0.893
O=C1C[C@@H](c2ccc(O)cc2)Oc2cc(O)cc(O)c21,0.0469,1.01,1,1
COc1c(C)c2c(c(O)c1C/C=C(\C)CCC(=O)O)C(=O)OC2,0.0252,0.31,0.48,0.658
C/C=C/CC(C)C(O)C1C(=O)NC(CC)C(=O)N(C)CC(=O)N(C)C(CC(C)C)C(=O)NC(C(C)C)C(=O)N(C)C(CC(C)C)C(=O)NC(C)C(=O)NC(C)C(=O)N(C)C(CC(C)C)C(=O)N(C)C(CC(C)C)C(=O)N(C)C(C(C)C)C(=O)N1C (configuration not stated),0.313,0.85,0.82,0.84
CCCCNc1ccc(C(=O)OCCN(C)C)cc1,0.124,0.9,0.91,0.729
CCCCOc1cc(C(=O)NCCN(CC)CC)c2ccccc2n1,0.163,0.86,0.77,0.854
CC(=O)Nc1ccc(O)cc1,0.0316,0.99,0.99,0.815
CC(C)(S)C(N)C(=O)O (configuration not stated),0.0756,0.9,0.75,0.678
CCOc1ccccc1OCC1CNCCO1 (configuration not stated),0.3,0.88,0.92,0.961
CN(C)CCC(c1ccccc1)c1ccccn1 (configuration not stated),0.0722,0.88,0.89,0.622
CCC[C@@H]1C[C@@H](C(=O)NC(C(C)Cl)C2O[C@H](SC)[C@H](O)[C@@H](O)[C@H]2O)N(C)C1 (some centres not stated),0.095,0.9,0.9,0.754
COc1cc(C(=O)NCc2ccc(OCCN(C)C)cc2)cc(OC)c1OC,0.138,0.85,0.89,0.857
CCCC(=O)Nc1ncnc2c1ncn2C1O[C@@H]2COP(=O)(O)O[C@H]2[C@H]1OC(=O)CCC (some centres not stated),0.15,1.05,0.96,1.01
c1ccc([C@H]2CN3CCSC3=N2)cc1,0.288,0.93,0.91,1.23
CN(N=O)C(=O)N[C@@H]1[C@@H](O)[C@H](O)[C@@H](CO)O[C@@H]1O,0.131,0.86,0.99,0.763

# Two entries from above, bar-delimited:
SMILES | signal change (36 h minus 0 h) [1] | SMN1 luciferase ratio [2] | SMN2 luciferase ratio [2] | normalised LDH release [3]
CS(=O)(=O)Nc1ccc([N+](=O)[O-])cc1Oc1ccccc1 | 0.0621 | 0.91 | 0.9 | 1.01
CN1Cc2c(N)cccc2C(c2ccccc2)C1 (configuration not stated) | 0.26 | 0.87 | 0.95 | 0.574

# (continued)

SMILES,signal change (36 h minus 0 h) [1],SMN1 luciferase ratio [2],SMN2 luciferase ratio [2],normalised LDH release [3]
O=C(O)CCCCC1CCSS1 (configuration not stated),0.0096,0.98,0.84,1.29
CC1(C)S[C@@H]2[C@H](NC(=O)COc3ccccc3)C(=O)N2[C@H]1C(=O)O,0.0875,0.78,0.82,0.84
NCCCCC(N)C(=O)NC(Cc1c[nH]c2ccccc12)C(=O)NC(CCCCN)C(=O)O (stereo not drawn) (H-Lys-Trp-Lys-OH; configuration not given here),0.061,0.96,0.96,0.974
O=c1cc(CO)occ1O,0.0917,1.01,0.92,0.94
COc1ccc(CN(CCN(C)C)c2ncccn2)cc1,0.196,0.89,0.95,0.189
COC(=O)C(C)C[N+](C)(C)C (configuration not stated),0.116,0.92,0.83,0.982
Clc1ccc(C(c2ccccc2Cl)C(Cl)Cl)cc1 (configuration not stated),0.395,0.96,0.92,0.751
CO[C@@]1(NC(=O)CSCC#N)C(=O)N2C(C(=O)O)=C(CSc3nnnn3C)CSC21 (some centres not stated),0.171,0.98,0.94,0.718
Cc1cc(C(C)(C)C)c(O)c(C)c1CC1=NCCN1,0.118,0.88,0.99,0.955
NC[C@@H]1O[C@H](OC2[C@@H](O)[C@H](O[C@@H]3[C@H](N)[C@@H](O)C[C@H](N)[C@H]3O[C@H]3O[C@H](CO)[C@@H](O)[C@H](O)[C@H]3N)O[C@@H]2CO)[C@H](N)[C@@H](O)[C@@H]1O (some centres not stated),-0.0493,0.94,1,0.832
CC[N+](CC)(CC)CCOc1cccc(OCC[N+](CC)(CC)CC)c1OCC[N+](CC)(CC)CC,0.166,0.67,0.91,0.953
C[C@]12C=CC(=O)C=C1CCC1C2C(=O)C[C@@]2(C)C1CC[C@]2(O)C(=O)CO (some centres not stated),0.0526,0.89,0.93,0.943
Cc1cc(C)nc(NS(=O)(=O)c2ccc(N)cc2)n1,0.149,0.86,0.93,0.88
CCn1cc(C(=O)O)c(=O)c2cc(F)c(N3CCNCC3)nc21,0.209,0.91,0.96,1.47
O=C(Cn1ccnc1[N+](=O)[O-])NCCO,0.0441,0.96,1.03,0.796
CC1CCc2cc(F)cc3c(=O)c(C(=O)O)cn1c23 (configuration not stated),0.201,0.84,0.95,0.851
CC(C)(Oc1ccc(CCNC(=O)c2ccc(Cl)cc2)cc1)C(=O)O,0.153,0.88,0.89,0.984
C#CCN(C)Cc1ccccc1,0.18,0.95,0.92,0.648
CC12CCC(=O)C=C1CCC1C2[C@@H](O)CC2(C)C1CC[C@]2(O)C(=O)COP(=O)(O)O (some centres not stated),0.0523,0.43,0.42,0.626
CC1(C)OC(=O)NC1=O,0.0303,1.03,1.12,0.934
C[n+]1c2cc(N)ccc2cc2ccc(N)cc21,0.0698,0.29,0.33,0.67
CC(CCc1ccccc1)NCC(O)c1ccc(O)c(C(N)=O)c1 (configuration not stated),0.0903,0.88,0.75,0.861
CO[C@@H]1[C@@H](O[C@@H]2O[C@H](C)[C@@H](O[C@H]3C[C@@](C)(O)[C@H](O)[C@H](C)O3)[C@H](N(C)C)[C@H]2O)[C@@H](CC=O)C[C@@H](C)[C@@H](O[C@H]2CC[C@H](N(C)C)[C@@H](C)O2)/C=C/C=C/C[C@H](C)OC(=O)C[C@H]1O,0.112,0.95,0.9,0.725
